Reference: PMC5419741

Chains of the proteins cited; added tags and fusions are not shown.
UniProt P06730, whole entry: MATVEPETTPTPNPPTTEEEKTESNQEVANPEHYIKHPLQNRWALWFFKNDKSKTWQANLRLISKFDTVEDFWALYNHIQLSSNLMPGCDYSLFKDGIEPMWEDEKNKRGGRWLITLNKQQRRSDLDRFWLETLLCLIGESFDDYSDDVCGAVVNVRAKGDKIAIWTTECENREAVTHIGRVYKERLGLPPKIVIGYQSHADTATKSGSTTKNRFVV

Assays:
eIF4E (Homo sapiens) = eIF4E (Homo sapiens) (UniProt P06730); assay: competition with a labelled probe; conditions: displaced by low-nM DM15, high-uM eIF4E needed to displace DM15; 5' m7Gppp cap; Competition assays: 20 mM Tris pH 8, 150 mM NaCl, 10% glycerol, 1 mM DTT, 0.5 ug BSA, 0.5 ug tRNA, 30 min on ice, native gel; recombinant protein; residues 1-217; protein details: His6-MBP removed by TEV; label: 32P in cap
[1] = tested on: LARP1 DM15 Y883 mutant Y883A (Homo sapiens); assay: EMSA; conditions: 5' m7Gppp cap; recombinant protein; residues 796-946; label: 32P in cap
[2] = tested on: LARP1 DM15 (Homo sapiens); assay: EMSA; conditions: recombinant protein; residues 796-946; label: 5' 32P

Sequence	binding result (eIF4E (Homo sapiens))	Kd [1] [µM]	binding result [2]
CCUCUUUUCCGUGGCGCCUCGGAGGCGUUCAGCUGCUUCAAG [m7Gppp-RPS6 42mer (capped TOP)]	binds more weakly	> 20	–
CUCUCUUCCUCGGCGCUGCCUACGGAGGUGGCAGCCAUCUCC [RPL32 42mer uncapped]	–	–	binds more weakly

For part of these data: The comparison behind a weaker result is the experiment's own reference, which may not be listed here. For part of these data: For at least one entry, the source does not settle the construct or the ends of the probe.
